Data as given in patent publication US5874529A (Peptor Ltd., priority 1994, dated 1999).

Assay: solid-phase peptide synthesis
Details: whole synthesis

| Substance | isolated mass (scale 0.250 mmole) | isolated yield (scale 0.250 mmole) | isolated mass | final HPLC purity (HPLC (Method G), scale of the general procedure 0.1 mmol, 0.25 mmol) | isolated yield (scale of the general procedure 0.1 mmol, 0.25 mmol) |
| --- | --- | --- | --- | --- | --- |
| H-D-Arg-Arg-cyclo(N^α (4-propanoyl)Gly-Hyp-Phe-N^α (3-amido-propyl)-S-Phe)-Ser-D-Phe-Phe-Arg-OH | 74 mg | 42% | – | – | – |
| Ada-D-Arg-Arg-N^α (6-acetamidohexylene)Gly-Hyp-Phe-D-Asp(NH-Me)-D-Phe-Phe-Arg-OH | – | – | 48 mg | 93% | 64% |
